The results in this text go back to the supplement of paper PMC10849652.

Protein sequences, listed by entry. Tags and fused reporters are not part of them. Lines headed by an entry give the natural chain unless they say otherwise; changes in a name come on top.
UniProt P27449, whole entry, looked up: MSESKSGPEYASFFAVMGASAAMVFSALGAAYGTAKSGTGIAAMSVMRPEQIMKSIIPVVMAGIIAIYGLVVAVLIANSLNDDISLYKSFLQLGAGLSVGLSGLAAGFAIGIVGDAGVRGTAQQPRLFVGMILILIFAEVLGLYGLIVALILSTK
UniProt Q6P4H8: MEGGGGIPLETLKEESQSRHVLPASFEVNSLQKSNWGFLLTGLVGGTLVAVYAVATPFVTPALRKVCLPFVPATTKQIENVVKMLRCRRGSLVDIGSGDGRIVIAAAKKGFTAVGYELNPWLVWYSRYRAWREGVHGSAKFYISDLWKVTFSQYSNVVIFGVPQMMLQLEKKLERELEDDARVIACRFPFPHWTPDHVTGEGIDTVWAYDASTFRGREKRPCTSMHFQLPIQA
UniProt P14415, whole entry, looked up: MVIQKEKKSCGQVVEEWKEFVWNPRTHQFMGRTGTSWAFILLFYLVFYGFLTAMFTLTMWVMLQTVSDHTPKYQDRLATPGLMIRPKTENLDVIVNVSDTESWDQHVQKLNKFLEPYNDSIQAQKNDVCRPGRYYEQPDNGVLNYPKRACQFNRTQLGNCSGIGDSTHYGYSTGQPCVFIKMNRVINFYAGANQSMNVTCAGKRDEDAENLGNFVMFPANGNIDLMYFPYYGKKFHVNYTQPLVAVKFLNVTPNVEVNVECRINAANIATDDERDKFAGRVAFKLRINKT
UniProt Q8NHH9: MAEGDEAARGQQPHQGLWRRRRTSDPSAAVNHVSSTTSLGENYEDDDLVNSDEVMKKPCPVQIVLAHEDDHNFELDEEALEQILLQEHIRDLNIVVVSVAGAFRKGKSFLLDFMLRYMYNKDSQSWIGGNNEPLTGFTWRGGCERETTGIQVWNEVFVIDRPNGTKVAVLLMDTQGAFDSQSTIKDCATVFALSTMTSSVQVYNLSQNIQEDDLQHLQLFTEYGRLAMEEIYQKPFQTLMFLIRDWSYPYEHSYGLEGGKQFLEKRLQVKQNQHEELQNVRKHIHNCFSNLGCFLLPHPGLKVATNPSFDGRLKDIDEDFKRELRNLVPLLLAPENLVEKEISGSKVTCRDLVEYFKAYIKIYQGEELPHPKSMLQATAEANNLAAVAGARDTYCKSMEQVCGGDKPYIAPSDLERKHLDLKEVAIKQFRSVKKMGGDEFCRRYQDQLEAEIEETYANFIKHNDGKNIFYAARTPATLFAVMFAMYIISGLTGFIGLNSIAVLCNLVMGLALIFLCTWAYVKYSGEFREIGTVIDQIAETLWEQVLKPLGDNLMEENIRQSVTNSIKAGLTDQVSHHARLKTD
UniProt P18847: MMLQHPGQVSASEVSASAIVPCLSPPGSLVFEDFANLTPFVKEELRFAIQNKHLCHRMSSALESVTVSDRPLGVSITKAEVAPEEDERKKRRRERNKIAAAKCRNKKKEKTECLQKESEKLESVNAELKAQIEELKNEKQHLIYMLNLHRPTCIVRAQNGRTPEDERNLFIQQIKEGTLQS
UniProt Q9NWX5: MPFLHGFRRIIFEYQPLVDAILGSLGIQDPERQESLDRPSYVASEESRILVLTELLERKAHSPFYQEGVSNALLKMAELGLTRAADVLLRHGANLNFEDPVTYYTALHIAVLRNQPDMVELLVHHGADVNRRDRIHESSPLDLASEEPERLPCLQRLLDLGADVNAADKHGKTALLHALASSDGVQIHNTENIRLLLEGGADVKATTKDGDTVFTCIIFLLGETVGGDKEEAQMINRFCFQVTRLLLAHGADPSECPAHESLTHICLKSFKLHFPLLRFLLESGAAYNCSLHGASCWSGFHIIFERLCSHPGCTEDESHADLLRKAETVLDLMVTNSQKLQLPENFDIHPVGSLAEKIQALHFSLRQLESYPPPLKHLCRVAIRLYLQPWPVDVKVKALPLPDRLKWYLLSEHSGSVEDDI
UniProt Q8IXJ9: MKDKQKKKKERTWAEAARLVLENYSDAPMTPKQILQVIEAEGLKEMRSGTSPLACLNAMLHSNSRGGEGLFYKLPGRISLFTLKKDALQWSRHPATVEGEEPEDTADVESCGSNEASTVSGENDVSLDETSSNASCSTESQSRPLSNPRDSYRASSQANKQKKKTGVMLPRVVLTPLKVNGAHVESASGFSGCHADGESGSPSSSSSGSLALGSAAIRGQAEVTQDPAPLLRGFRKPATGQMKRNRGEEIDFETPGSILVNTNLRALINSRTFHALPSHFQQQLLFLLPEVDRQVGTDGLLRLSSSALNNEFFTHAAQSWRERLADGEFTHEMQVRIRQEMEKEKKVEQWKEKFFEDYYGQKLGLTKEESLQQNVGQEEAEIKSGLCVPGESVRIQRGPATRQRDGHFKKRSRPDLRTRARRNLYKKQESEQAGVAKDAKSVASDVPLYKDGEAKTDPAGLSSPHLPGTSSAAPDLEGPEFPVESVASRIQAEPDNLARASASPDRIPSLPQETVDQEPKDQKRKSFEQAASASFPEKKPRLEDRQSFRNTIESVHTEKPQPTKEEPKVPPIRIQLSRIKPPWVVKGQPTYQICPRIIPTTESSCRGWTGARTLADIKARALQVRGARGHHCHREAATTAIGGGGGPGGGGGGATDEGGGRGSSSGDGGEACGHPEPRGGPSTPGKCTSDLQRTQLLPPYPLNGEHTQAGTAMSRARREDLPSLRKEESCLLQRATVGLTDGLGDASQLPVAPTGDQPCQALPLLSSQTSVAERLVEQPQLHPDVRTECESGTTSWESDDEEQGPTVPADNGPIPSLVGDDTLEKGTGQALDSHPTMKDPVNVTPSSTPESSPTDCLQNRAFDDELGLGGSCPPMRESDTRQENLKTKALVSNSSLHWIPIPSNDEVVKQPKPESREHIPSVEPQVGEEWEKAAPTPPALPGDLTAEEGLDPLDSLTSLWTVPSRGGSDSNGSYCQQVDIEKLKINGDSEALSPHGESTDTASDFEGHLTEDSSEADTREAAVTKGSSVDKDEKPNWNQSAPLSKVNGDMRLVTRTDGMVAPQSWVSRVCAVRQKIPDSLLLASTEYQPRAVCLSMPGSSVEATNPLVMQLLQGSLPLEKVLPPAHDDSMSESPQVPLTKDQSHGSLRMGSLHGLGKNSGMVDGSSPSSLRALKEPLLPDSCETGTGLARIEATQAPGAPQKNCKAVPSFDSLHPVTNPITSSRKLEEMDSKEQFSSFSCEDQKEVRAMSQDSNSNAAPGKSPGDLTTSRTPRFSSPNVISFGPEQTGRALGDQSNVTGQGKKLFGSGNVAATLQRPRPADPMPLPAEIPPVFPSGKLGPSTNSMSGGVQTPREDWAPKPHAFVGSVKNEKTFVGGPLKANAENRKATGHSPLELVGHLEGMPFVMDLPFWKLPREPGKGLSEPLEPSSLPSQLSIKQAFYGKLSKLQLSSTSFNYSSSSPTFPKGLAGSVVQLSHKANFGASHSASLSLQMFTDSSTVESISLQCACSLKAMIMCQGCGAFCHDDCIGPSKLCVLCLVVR
UniProt Q8N5I2: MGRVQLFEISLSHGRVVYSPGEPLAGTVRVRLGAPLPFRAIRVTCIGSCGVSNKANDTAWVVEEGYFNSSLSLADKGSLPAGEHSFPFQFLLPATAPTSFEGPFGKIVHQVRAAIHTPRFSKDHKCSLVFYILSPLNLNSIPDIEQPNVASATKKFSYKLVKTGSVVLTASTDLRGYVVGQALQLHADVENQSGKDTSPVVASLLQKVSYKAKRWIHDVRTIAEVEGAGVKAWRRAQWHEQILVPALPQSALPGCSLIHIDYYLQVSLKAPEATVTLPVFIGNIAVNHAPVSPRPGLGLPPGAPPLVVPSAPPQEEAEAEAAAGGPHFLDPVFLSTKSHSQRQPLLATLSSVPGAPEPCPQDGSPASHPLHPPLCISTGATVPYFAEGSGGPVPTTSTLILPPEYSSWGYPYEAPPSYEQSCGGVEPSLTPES
UniProt Q9Y689: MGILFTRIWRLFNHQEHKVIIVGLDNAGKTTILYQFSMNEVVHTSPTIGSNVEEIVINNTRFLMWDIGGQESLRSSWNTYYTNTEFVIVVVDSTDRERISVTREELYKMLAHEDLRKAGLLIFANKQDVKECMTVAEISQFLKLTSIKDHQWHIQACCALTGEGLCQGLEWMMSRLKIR
UniProt P00966: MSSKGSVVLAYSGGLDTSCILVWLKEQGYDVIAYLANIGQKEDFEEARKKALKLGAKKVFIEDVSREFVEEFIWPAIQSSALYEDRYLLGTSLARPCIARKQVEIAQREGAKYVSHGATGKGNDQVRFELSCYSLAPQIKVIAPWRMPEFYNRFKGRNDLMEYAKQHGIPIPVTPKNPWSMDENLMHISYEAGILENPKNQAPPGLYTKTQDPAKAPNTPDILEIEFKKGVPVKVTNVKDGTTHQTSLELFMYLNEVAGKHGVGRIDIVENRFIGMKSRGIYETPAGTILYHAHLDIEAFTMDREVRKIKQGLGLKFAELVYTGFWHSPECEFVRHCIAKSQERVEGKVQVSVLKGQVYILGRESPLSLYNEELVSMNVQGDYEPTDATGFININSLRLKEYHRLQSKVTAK
UniProt Q6ZNE5, whole entry, looked up: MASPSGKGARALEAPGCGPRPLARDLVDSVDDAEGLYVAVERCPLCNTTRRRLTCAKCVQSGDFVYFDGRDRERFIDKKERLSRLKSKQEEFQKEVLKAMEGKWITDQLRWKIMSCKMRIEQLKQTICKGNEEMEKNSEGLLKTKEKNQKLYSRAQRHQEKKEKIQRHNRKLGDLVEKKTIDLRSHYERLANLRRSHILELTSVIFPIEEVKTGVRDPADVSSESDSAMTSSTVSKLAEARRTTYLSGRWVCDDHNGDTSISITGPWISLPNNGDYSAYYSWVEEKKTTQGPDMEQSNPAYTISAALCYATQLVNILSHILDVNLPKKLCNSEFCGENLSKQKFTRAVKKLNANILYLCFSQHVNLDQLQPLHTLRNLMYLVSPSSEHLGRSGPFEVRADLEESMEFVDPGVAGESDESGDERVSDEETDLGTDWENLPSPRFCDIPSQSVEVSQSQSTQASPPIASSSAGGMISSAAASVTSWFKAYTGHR
UniProt O94817, whole entry, looked up: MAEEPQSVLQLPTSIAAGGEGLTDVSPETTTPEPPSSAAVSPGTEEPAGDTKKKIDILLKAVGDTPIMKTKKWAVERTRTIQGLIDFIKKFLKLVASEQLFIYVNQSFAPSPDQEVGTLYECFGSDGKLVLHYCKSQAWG
UniProt P49407: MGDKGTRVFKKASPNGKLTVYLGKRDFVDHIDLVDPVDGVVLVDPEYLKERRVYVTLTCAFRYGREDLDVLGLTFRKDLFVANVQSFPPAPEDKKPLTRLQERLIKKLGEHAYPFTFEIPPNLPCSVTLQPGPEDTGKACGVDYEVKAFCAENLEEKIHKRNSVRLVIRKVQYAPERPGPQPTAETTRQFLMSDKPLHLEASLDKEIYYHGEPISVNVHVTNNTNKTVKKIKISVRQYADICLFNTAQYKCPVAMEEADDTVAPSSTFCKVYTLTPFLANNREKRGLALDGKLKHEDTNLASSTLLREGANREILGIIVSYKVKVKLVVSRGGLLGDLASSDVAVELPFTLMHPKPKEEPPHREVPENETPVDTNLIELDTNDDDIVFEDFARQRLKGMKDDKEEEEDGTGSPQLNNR
UniProt Q9NVP2, whole entry, looked up: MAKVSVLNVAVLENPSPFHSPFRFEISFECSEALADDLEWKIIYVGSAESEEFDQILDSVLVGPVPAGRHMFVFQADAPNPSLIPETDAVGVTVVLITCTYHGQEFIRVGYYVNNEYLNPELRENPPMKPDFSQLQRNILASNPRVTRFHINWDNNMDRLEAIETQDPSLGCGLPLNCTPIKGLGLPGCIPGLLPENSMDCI
UniProt Q3SXY8: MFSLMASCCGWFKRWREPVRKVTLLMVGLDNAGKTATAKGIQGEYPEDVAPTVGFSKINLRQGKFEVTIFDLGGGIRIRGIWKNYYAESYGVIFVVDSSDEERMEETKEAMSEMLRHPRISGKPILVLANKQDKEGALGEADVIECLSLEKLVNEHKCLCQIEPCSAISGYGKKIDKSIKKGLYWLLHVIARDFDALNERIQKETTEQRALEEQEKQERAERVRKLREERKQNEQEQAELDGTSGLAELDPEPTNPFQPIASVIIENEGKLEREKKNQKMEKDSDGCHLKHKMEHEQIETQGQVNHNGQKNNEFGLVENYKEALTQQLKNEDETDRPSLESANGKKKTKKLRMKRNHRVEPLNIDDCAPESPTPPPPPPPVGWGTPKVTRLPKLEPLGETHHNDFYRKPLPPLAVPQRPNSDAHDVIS
UniProt P18846: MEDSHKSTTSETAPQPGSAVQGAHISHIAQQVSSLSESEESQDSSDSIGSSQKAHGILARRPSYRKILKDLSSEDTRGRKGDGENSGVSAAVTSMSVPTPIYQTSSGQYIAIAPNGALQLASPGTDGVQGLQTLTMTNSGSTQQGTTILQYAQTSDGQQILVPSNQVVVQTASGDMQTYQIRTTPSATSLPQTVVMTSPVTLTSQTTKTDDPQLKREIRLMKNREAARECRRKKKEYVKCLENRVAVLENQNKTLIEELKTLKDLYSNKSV
UniProt P40617: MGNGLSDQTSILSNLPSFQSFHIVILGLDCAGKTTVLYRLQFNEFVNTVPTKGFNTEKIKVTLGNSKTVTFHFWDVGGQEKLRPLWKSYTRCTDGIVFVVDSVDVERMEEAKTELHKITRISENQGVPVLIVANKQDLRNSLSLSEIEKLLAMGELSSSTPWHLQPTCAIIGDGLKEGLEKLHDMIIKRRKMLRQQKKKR

The other results are listed elsewhere or left out.

Compound in the first experiment: CCN(CC)Cc1ccc2cc(COC(=O)Nc3ccc(C(=O)NO)cc3)ccc2c1 [givinostat]
The experiment is described as follows: log2 fold change, soluble protein after heating vs DMSO (PISA); higher = thermal stabilisation; K562 cells, 10 uM, 30 min; active = over 0.2 and 3.5 SD of the protein, either way, in both replicates (recomputed). An outline of the steps:
(§1)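 Thermal stability values are relative to control samples and come from duplicates. They are expressed as log2 fold changes. For measurement, K562 cells (2×10^6 cells/mL) received 10 μM compound for 30 min, and aliquots were heated for 3 min over 48°C-58°C, pooled, and extracted at 4°C in PBS with 0.5% NP-40. Soluble protein, the supernatant after 21,000xg for 90 min, was quantified by TMTpro 16plex LC-MS/MS with equalised channel sums.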
For ATP6V0C (UniProt P27449), the log2 fold change is inactive: 0.092.

Regarding ATPSCKMT (UniProt Q6P4H8), the log2 fold change was inactive: -0.115.

With ATP1B2 (UniProt P14415), the log2 fold change is inactive: 0.02.

As to ARSK (UniProt Q6UWY0), the log2 fold change was inactive: -0.051.

As to ATL2 (UniProt Q8NHH9), the log2 fold change was inactive: 0.023.

For ATG10 (UniProt Q9H0Y0), the log2 fold change is inactive: -0.002.

As to ATF3 (UniProt P18847), the log2 fold change is inactive: 0.048.

On to ASB6 (UniProt Q9NWX5), for which the log2 fold change was inactive: 0.108.

For ARL5B (UniProt Q96KC2), the log2 fold change is inactive: 0.086.

On to ARPIN isoform 2 (UniProt Q7Z6K5), for which the log2 fold change was inactive: -0.008.

On to ARSA (UniProt P15289), for which the log2 fold change was inactive: -0.027.

Turning to ASXL1 (UniProt Q8IXJ9), the log2 fold change was inactive: 0.06.

Regarding ARRDC1 (UniProt Q8N5I2), the log2 fold change was inactive: 0.136.

Take ARL5A (UniProt Q9Y689): the log2 fold change was inactive: -0.033.

Regarding ATF7 isoform 6 (UniProt P17544), the log2 fold change was inactive: -0.131.

Consider ATF7IP isoform 4 (UniProt Q6VMQ6), for which the log2 fold change was inactive: 0.149.

Take ATP1B1 (UniProt P05026): the log2 fold change is inactive: -0.042.

Regarding ASS1 (UniProt P00966), the log2 fold change is inactive: 0.031.

Consider ATG14 (UniProt Q6ZNE5), for which the log2 fold change was inactive: 0.068.

On to ASCC2 (UniProt Q9H1I8), for which the log2 fold change is inactive: 0.211.

As to ATP2C1 isoform 3 (UniProt P98194), the log2 fold change was inactive: -0.036.

For the target ASXL2 (UniProt Q76L83), the log2 fold change is inactive: 0.016.

Consider ATG12 (UniProt O94817), for which the log2 fold change is inactive: -0.006.

Regarding ARMC8 isoform 6 (UniProt Q8IUR7), the log2 fold change is inactive: 0.075.

On to ATP2B2 (UniProt Q01814), for which the log2 fold change is inactive: 0.015.

In the case of ARRB1 isoform 2 (UniProt P49407), the log2 fold change is inactive: 0.12.

As for ASF1B (UniProt Q9NVP2), the log2 fold change is inactive: 0.284.

As to ARL13B (UniProt Q3SXY8), the log2 fold change is inactive: 0.026.

For ATF1 (UniProt P18846), the log2 fold change is inactive: 0.003.

Compound in a further experiment: CCN(CCCOc1ccc2c(Nc3cc(CC(=O)Nc4cccc(F)c4)[nH]n3)ncnc2c1)CCOP(=O)(O)O [barasertib]
The experiment is described as above. In a few lines:
as §1
For ATP6V0C (UniProt P27449), the log2 fold change is inactive: -0.025.

For the target ATPSCKMT (UniProt Q6P4H8), the log2 fold change is inactive: -0.025.

Turning to ATP1B2 (UniProt P14415), the log2 fold change is inactive: 0.061.

In the case of ARSK (UniProt Q6UWY0), the log2 fold change is inactive: -0.182.

Consider ATL2 (UniProt Q8NHH9), for which the log2 fold change was inactive: 0.019.

Turning to ATG10 (UniProt Q9H0Y0), the log2 fold change was inactive: 0.037.

Consider ATF3 (UniProt P18847), for which the log2 fold change was inactive: 0.09.

In the case of ASB6 (UniProt Q9NWX5), the log2 fold change is inactive: 0.031.

Consider ARL5B (UniProt Q96KC2), for which the log2 fold change was inactive: 0.093.

As for ARPIN isoform 2 (UniProt Q7Z6K5), the log2 fold change was inactive: 0.035.

With ARSA (UniProt P15289), the log2 fold change was inactive: 0.15.

For ASXL1 (UniProt Q8IXJ9), the log2 fold change was inactive: -0.004.

For ARRDC1 (UniProt Q8N5I2), the log2 fold change was inactive: -0.179.

For ARL5A (UniProt Q9Y689), the log2 fold change was inactive: 0.023.

Regarding ATF7 isoform 6 (UniProt P17544), the log2 fold change was inactive: -0.033.

Turning to ATF7IP isoform 4 (UniProt Q6VMQ6), the log2 fold change was inactive: -0.005.

Turning to ATP1B1 (UniProt P05026), the log2 fold change is inactive: -0.074.

Consider ASS1 (UniProt P00966), for which the log2 fold change was inactive: -0.063.

As for ARL4A (UniProt P40617), the log2 fold change is inactive: 0.057.

In the case of ATG14 (UniProt Q6ZNE5), the log2 fold change was inactive: -0.041.

Take ATP2C1 isoform 3 (UniProt P98194): the log2 fold change is inactive: 0.098.

ATG12 (UniProt O94817): the log2 fold change is inactive: -0.021.

Turning to ATP6V0A1 (UniProt Q93050), the log2 fold change was inactive: -0.095.

Turning to ATP5F1B (UniProt F8W0P7), the log2 fold change was inactive: -0.23.

Take ARMC8 isoform 6 (UniProt Q8IUR7): the log2 fold change is inactive: -0.021.

As for ASNSD1 (UniProt Q9NWL6), the log2 fold change was inactive: 0.152.

For the target ARRB1 isoform 2 (UniProt P49407), the log2 fold change is inactive: 0.046.

Regarding ASF1B (UniProt Q9NVP2), the log2 fold change is inactive: 0.07.

Turning to ATP5F1B (UniProt H0YI37), the log2 fold change is inactive: -0.015.

Take ARL13B (UniProt Q3SXY8): the log2 fold change was inactive: -0.01.

On to ATF1 (UniProt P18846), for which the log2 fold change is inactive: 0.079.

Compound in another experiment: CC[C@@H]1C(=O)N(C)c2cnc(Nc3ccc(C(=O)NC4CCN(C)CC4)cc3OC)nc2N1C1CCCC1
Described as above. In a few lines:
as §1
Regarding ATPSCKMT (UniProt Q6P4H8), the log2 fold change was inactive: 0.108.

With ATP1B2 (UniProt P14415), the log2 fold change is inactive: -0.009.

Take ATL2 (UniProt Q8NHH9): the log2 fold change was inactive: 0.031.

Turning to ATF3 (UniProt P18847), the log2 fold change was inactive: 0.054.

For ASB6 (UniProt Q9NWX5), the log2 fold change was inactive: 0.047.

Regarding ASXL1 (UniProt Q8IXJ9), the log2 fold change was inactive: 0.003.

For ARRDC1 (UniProt Q8N5I2), the log2 fold change is inactive: -0.063.

For ARL5A (UniProt Q9Y689), the log2 fold change was inactive: 0.116.

On to ATP1B1 (UniProt P05026), for which the log2 fold change is inactive: 0.094.

In the case of ASS1 (UniProt P00966), the log2 fold change is inactive: 0.02.

As to ATG14 (UniProt Q6ZNE5), the log2 fold change was inactive: 0.102.

ASCC2 (UniProt Q9H1I8): the log2 fold change is inactive: 0.018.

ATG12 (UniProt O94817): the log2 fold change was inactive: -0.047.

As for ATE1 (UniProt O95260), the log2 fold change is inactive: 0.05.

For ARRB1 isoform 2 (UniProt P49407), the log2 fold change was inactive: -0.051.

In the case of ATP5F1B (UniProt H0YI37), the log2 fold change was inactive: 0.083.

For the target ARL13B (UniProt Q3SXY8), the log2 fold change is inactive: 0.025.

In the case of ATF1 (UniProt P18846), the log2 fold change was inactive: 0.
